For one molecule, binding results are on record in article PMC7925594.

No constants are given. Whether binding was seen depends on the method and setting. In cells and extracts the contact can be indirect. Binding can be weak; no strength is given. Where a sequence is shown, tags or fusion partners need not be part of it.

For the test, the target named is Flag-NEMO coil zipper (COZI) domain. The test can be described thus: co-IP; HEK293T or N4BP1-/- HEK293T cells co-transfected with HA-N4BP1 (or deletion mutants) and Flag-NEMO (or deletion mutants); NP-40 lysis buffer; immunoprecipitation and immunoblot. A general note: In western blotting, separated proteins are transferred to a membrane and probed.

B1: HA-tagged N4BP1 (full-length) (protein, UniProt O75113 1-896)
chain: MAARAVLDEFTAPAEKAELLEQSRGRIEGLFGVSLAVLGALGAEEPLPARIWLQLCGAQEAVHSAKEYIKGICEPELEERECYPKDMHCIFVGAESLFLKSLIQDTCADLCILDIGLLGIRGSAEAVVMARSHIQQFVKLFENKENLPSSQKESEVKREFKQFVEAHADNYTMDLLILPTSLKKELLTLTQGEENLFETGDDEVIEMRDSQQTEFTQNAATGLNISRDETVLQEEARNKAGTPVSELTKQMDTVLSSSPDVLFDPINGLTPDEEALSNERICQKRRFSDSEERHTKKQFSLENVQEGEILHDAKTLAGNVIADLSDSSADSENLSPDIKETTEEMEYNILVNFFKTMGYSQEIVEKVIKVYGPSTEPLLLLEEIEKENKRFQEDREFSAGTVYPETNKTKNKGVYSSTNELTTDSTPKKTQAHTQQNMVEKFSQLPFKVEAKPCTSNCRINTFRTVPIEQKHEVWGSNQNYICNTDPETDGLSPSVASPSPKEVNFVSRGASSHQPRVPLFPENGLHQQPEPLLPNNMKSACEKRLGCCSSPHSKPNCSTLSPPMPLPQLLPSVTDARSAGPSDHIDSSVTGVQRFRDTLKIPYKLELKNEPGRTDLKHIVIDGSNVAITHGLKKFFSCRGIAIAVEYFWKLGNRNITVFVPQWRTRRDPNVTEQHFLTQLQELGILSLTPARMVFGERIASHDDRFLLHLADKTGGIIVTNDNFREFVNESVSWREIITKRLLQYTFVGDIFMVPDDPLGRSGPRLEEFLQKEVCLRDMQPLLSALPNVGMFDPSFRVPGTQAASTSHQPPTRIQGAPSSHWLPQQPHFPLLPALPSLQQNLPMPAQRSSAETNELREALLKIFPDSEQRLKIDQILVAHPYMKDLNALSAMVLD
As to B1, the binding entry is reported as “binds”.
